Values of other authors in US20090175929A1 (priority 2006, published 2009).
Structures can show the parent of a compound that is named as a salt.

Conditions: in vivo, po

COc1cc2c(cc1OC)C(=O)C(CC1CCN(Cc3ccccc3)CC1)C2 (stereo not shown) [donepezil hydrochloride]
Amount of donepezil metabolites such as 6-O-desmethyldonepezil generated, based on the parent drug: 25 to 35%
